This note sets out measurements from patent US20230135524A1, “ARYL HYDANTOIN HETEROCYCLES AND METHODS OF USE” (The United States of America,as represented by the …, priority 2020, published 2023).

What all share (assay type): cell-based
In one assay the test system is DU145. The experiment in a line: IncuCyte % confluence cell growth inhibition, DU145. Conditions: Homo sapiens, DU-145; AR-negative; % cell growth inhibition relative to DMSO. Here is the method:
(§1) Cells were grown in DMEM (Dulbecco's Modified Eagle Medium) with 10% FBS (fetal bovine serum) in 384 well plates for 1 day, then dosed with indicated concentrations of exemplary compounds, followed by imaging of all wells every 4 hours by […]™ ZOOM (Sartorius, Goettingen, Germany). Images were then analyzed to discern the % confluence of cells in each well. IC50 values were calculated from dose response curves of the % cell growth inhibition relative to DMSO control at the same time point per each cell line. The IC50 values (μM) for various AR-positive (LNCaP, LNCAPAR, LAPC4, 22Rv1, LNCaP ARin vivo, and LNCaP ARF876L) and AR-negative (PC3 and DU145) prostate cancer cell lines are shown in Table 2.

A further assay deals with LAPC4. The assay is described as follows: IncuCyte % confluence cell growth inhibition, LAPC4. Conditions: Homo sapiens, AR-positive, AR w.t., % cell growth inhibition relative to DMSO. The method, then:
as §1

The subject of the next assay is LNCaP. The experiment in a line: IncuCyte % confluence cell growth inhibition, LNCaP. Conditions: Homo sapiens, AR-positive, AR mutation T877A, % cell growth inhibition relative to DMSO. Here is the method:
as §1

The next assay concerns 22Rv1. The experiment in a line: IncuCyte % confluence cell growth inhibition, 22Rv1. Conditions: Homo sapiens, AR-positive, AR mutation H874Y, % cell growth inhibition relative to DMSO. Here is the method: as §1
For another assay, the system named is LNCAP AR. The assay is described as follows: IncuCyte % confluence cell growth inhibition, LNCAP AR. The note with it: AR-positive, AR w.t., % cell growth inhibition relative to DMSO. Here is the method: as §1
The subject of another assay is PC3. The assay is described as follows: IncuCyte % confluence cell growth inhibition, PC3. The note with it: Homo sapiens, PC-3; AR-negative; % cell growth inhibition relative to DMSO. Here is the method:
as §1

With `CNC(=O)c1ccc(N2C(=S)N(c3ccc(C#N)c(C(F)(F)F)c3)C(=O)C2(C)C)cc1F` [Enzalutamide, reference compound], the IC50 amounted to 86.3 µM with DU145; 67.9 µM in the assay on LAPC4; 59 µM with LNCaP; 70.8 µM in the assay on 22Rv1; 53.5 µM in the assay on LNCAP AR; 200 µM with PC3.
